Measurements taken from patent publication US20240390455A1, “METHODS AND COMPOSITIONS FOR TREATING CANCERS AND OTHER PROLIFERATIVE DISORDERS” (ARIZONA BOARD OF REGENTS ON BEHALF OF THE UNIVERSITY OF …, priority 2022, published 2024).
Results are given in words; binding and its absence hold for the method and conditions named. Some entries that bind do so weakly or less than the wild type.

Amino acid sequences for entries named in this document (tags omitted). Residues count along the entry.
UniProt Q15109, residues 23-404: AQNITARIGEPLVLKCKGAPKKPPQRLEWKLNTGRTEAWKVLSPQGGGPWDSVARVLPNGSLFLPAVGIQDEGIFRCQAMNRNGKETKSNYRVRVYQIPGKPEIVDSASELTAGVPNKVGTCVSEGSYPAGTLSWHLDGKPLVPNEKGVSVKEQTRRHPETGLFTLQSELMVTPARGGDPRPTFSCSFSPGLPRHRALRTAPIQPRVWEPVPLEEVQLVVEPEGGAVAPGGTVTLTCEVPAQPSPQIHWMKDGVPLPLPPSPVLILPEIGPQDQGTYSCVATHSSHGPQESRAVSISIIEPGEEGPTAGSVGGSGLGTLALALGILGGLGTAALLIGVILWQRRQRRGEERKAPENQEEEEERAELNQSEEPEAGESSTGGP

What was measured:
[1] = target: receptor for advanced glycation endproducts (RAGE), human, endogenous in human pulmonary artery smooth muscle cells (HPASMC) (human) (UniProt Q15109); experiment: RAGE immunoprecipitation from naive HPASMC treated with apoptotic conditioned media, immunoblot
[2] = target: receptor for advanced glycation endproducts (RAGE), human, endogenous in human pulmonary artery smooth muscle cells (HPASMC) (human) (UniProt Q15109); experiment: RAGE immunoprecipitation from naive HPASMC treated with conditioned media, immunoblot

binding [1]: binds
binding [2]: binds
B1: inositol monophosphatase 1 (IMPA1), human, endogenous in human cells (enzyme, UniProt P29218 1-277, looked up)
chain: MADPWQECMDYAVTLARQAGEVVCEAIKNEMNVMLKSSPVDLVTATDQKVEKMLISSIKEKYPSHSFIGEESVAAGEKSILTDNPTWIIDPIDGTTNFVHRFPFVAVSIGFAVNKKIEFGVVYSCVEGKMYTARKGKGAFCNGQKLQVSQQEDITKSLLVTELGSSRTPETVRMVLSNMEKLFCIPVHGIRSVGTAAVNMCLVATGGADAYYEMGIHCWDVAGAGIIVTEAGGVLMDVTGGPFDLMSRRVIAANNRILAERIAKEIQVIPLQRDDED
